Laboratory results: publication PMC7094869
These are yes or no findings as the source states them, for the method shown. In cells and extracts the contact can be indirect. These calls come from enrichment with a bait or labelling near it, and not all partners need be listed. Tags and fused reporters may be left off the sequences shown.

Tests used:
[1] = target: T1, Klp10A (Drosophila melanogaster (endogenous in testes)) (UniProt Q960Z0); test: affinity purification with mass spectrometry; anti-Klp10A pull down from Dpp testis (nos>dpp, SG tumor); two experiments; LC/MS/MS
T1 sequence: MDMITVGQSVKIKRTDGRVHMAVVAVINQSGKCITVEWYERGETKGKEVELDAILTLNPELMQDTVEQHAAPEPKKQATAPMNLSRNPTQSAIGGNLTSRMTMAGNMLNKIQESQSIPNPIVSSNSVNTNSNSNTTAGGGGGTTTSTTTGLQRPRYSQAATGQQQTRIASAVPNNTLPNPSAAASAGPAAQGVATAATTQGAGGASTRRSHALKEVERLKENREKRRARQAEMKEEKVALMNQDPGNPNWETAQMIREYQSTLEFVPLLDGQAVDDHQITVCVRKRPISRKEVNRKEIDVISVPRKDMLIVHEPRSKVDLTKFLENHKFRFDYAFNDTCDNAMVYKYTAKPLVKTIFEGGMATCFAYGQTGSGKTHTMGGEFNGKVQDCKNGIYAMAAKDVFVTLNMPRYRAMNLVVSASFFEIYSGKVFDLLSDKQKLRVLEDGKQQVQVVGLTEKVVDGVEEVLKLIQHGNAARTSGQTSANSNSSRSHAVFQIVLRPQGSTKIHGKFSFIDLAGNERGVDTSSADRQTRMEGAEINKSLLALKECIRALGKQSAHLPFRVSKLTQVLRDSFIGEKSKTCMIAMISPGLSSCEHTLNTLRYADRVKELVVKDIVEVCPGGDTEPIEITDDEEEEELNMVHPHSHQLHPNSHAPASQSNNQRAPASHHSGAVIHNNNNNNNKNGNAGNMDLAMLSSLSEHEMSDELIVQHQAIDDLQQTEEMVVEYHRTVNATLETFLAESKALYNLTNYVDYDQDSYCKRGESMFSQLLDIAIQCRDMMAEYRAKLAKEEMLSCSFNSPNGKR

[2] = target: T2, GFP-Klp10A (Drosophila melanogaster) (UniProt Q960Z0); test: affinity purification with mass spectrometry; GFP-Trap agarose beads on GFP-Klp10A; 1500 pairs of nos-gal4>UAS-upd, UAS-gfp-klp10A testes; 10 mM Tris-HCl pH 7.5, 150 mM NaCl, 0.5 mM EDTA, 0.1% NP40; control GFP from Upd testis; LC-MS/MS
T2 sequence: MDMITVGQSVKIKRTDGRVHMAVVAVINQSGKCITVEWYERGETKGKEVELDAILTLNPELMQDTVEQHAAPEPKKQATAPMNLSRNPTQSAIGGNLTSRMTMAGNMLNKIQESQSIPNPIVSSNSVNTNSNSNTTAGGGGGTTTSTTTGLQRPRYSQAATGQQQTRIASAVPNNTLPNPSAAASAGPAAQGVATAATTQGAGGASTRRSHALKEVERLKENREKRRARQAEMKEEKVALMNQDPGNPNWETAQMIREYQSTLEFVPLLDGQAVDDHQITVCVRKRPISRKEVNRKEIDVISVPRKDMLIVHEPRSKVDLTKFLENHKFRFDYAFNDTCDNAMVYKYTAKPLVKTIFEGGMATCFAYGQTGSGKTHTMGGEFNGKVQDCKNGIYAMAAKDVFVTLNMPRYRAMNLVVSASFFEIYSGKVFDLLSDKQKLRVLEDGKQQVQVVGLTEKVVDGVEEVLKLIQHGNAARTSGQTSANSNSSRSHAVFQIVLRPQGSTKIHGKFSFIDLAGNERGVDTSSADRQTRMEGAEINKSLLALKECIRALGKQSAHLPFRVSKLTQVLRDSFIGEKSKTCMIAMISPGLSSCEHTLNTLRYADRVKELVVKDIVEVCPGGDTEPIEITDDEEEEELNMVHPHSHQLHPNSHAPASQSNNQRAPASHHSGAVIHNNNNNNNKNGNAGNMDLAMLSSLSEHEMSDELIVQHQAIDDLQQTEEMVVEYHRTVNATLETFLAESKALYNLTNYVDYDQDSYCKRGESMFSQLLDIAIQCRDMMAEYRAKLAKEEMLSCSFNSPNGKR

[3] = target: T1, Klp10A (Drosophila melanogaster (endogenous in testes)); test: affinity purification with mass spectrometry; guinea-pig anti-Klp10A on Protein A-Dynabeads; 250 pairs of nos-gal4>UAS-upd testes; 10 mM Tris-HCl pH 7.5, 150 mM NaCl, 0.5 mM EDTA, 0.1% NP40; control pre-immune IgG; two experiments; LC/MS/MS

Measured: binding

B1: Armitage (protein, UniProt Q6J5K9 1-1188)
chain: MFTYVSKFFTNPDRNREDILESLDRENSFLDQKLMEEKMDQQLKANPNEINGVLSNKIAELTHGLSEMDVSKESSCTARKGVITSLDGDRGVIDKDVLFETKVAEDIILDLHVGCVVEYLTFTTGEAMRVVKVKSILEHSWEDTSQKEIEKAVDNLKNEKPTFFNTETRSVLGLISQRLASSIDVETEYGQLTVELDNIEMNFIPTNGDRVRLECNIQLDDGFVDKQGEILEVTKLFPTRIQEGEKCIVERVYVHMVVLGPETYILKTDLPTGTDLHLGDIVLADLIECQYSKFTRRAIKITPLEKNFGATKLTQQSSMGSSGSGKAVTVTGVNRFITAELWQKESVSLKLTNNLNRTLRLESITVCNDSESQLSVVSPLESKEISSGSEITVTFEIHTQFLGEAIEKYVLNFDLLKVRRVFTVIVCKTKEEVAEAEKRMIAAEALMAPGRNSQERSRFYANQVWCNKVDVIPGQQIVTKRRFVALRLGCFEVPKELRQICLTSERRQEMIKAIEQHYSFLTEPLSIKTYMHRFRLLLHLEEIECFVNFRNYDRDRAHFLRDGEFLTLQIENLAERRPSLVIGDTLRVINPWSDPDSQTTKSYEGIIHKVLFDRILLKFHSSFQEKYNGEDYRLEFYFSRYSFRKQHHAISKIVGVMGEDFLFPSKVTKRENPQLDVYMKDDDMYLYDSKLEWYNQSLNSIQKRAVFNILRGEAENIPYVLFGPPGSGKTMTLIETLLQLVRNLPGARILVGTPSNSSADLVTKRLIDSKALLQGDFIRLVSYNQVEKDLIPPEIMSYCATSDVGAVGSCEDKMMVTESGLKLRCQAKFIGTHRITISTCTTLGNFLQLGFPAGHFTHVLFDEAGQCTEPETMVPIVMLTKKRSQVVLSGDPRQLQSIVTSRIASKMGFSISFLERLLERSPYRKDLQRFPESSGYNPLVLTKLLYNYRALPSIMSIYSRLFYDDELIPVLSEKDSRESRLLSKLRCVFESEKDIPQAHGTFFYGIIGENRQNNDSPSWFNPQEVREVFLMTIALYRANVTADQIGIITPYQKQVKMLRSMFIGTDVVMPKIGSVEEFQGQERDIILISTVRSSEEILRMDARFSLGFVRCSKRLNVAVSRARAMMIIFGNPHLLAVDECWRQLILFCVKNNAYFGCDLPQMVINQKDEVPVCLETFVPSLNTTDDLN
binds: all assays above

B2: Spindle-E (protein, UniProt Q9VF26 1-1434)
chain: MDQEVMDFFDFSKELKRVAAAPQGYISSDPRLMATKFKSSEVPNRELIGTDYVSKIVAKEKCLLNGTLLNEQPQGKRIRTLDDLDTDDEGEETEIRRDDEYYKKFRFNLNRDKNLSIYAKREEILAAINAHPVVIIKGETGCGKTTQVPQYILDEAYKSGKYCNIVVTQPRRIAAISIANRVCQEREWQQNTVCSFQVGLHRPNSLEDTRLLYCTTGVLLNNLINNKTLTHYTHIVLDEVHERDQNMDFLLIVVRRLLATNSRHVKIILMSATIDAKELSDYFTTTNSIPPVITTNHRRKHSIEKFYRDQLGSIIWNEEDVGHQQVPEINKHGYRAAVKIIVIIDNMERKAAIQSRQSYDEALRYGAVLIFLPGIYEIDTMAENLTCMLENDPNIKVSIVRCFSLMTPENQRDVFNPPPPGFRKIILTTNIAESSITVPDVSYVIDFCLAKVKVTDTASSFSSLRLTWASKANCRQRAGRVGRLRSGRVYRMVNKHFYQREMPEFGIPEMLRLPLQNSVLKAKVLNMGSPVEILALALSPPNLSDIHNTILLLKEVGALYLTVDGIYDPLDGDLTYWGTIMSRLPLDTRQSRLIILGYIFNMLEEAIIIAAGLSTPGLFAHEGGRSQLGDSFWMHYIFSDGSGSDLVAIWRVYLTYLNIVENGHDQESAIRWAKRFHVSLRSLKEIHLLVQELRVRCTHLGLIPFPVNPNQMMDDREKAIMLKVIIAGAFYPNYFTRSKESCADTDRNIYQTISGHDPCRTVYFTNFKPAYMGELYTRRIKELFQEVRIPPENMDVTFQEGSQKVFVTFKQDDWIEGSSKYVPVSGRVQSEVYKAVMMRQNRVERPIHIMNPSAFMSYVQQRGIGDVIEGRWIPPTKPLNVELLALPSVFDKTISGSITCIVNCGKFFFQPQSFEECIRNMSEIFNAPQQLRNYVTNASAIAKGMMVLAKRDSYFQRATVIRPENQSNRQPMFYVRFIDYGNCTLLPMQLMRLMPRELTEQYGDLPPRVFECRLAMVQPSSVVSGNNRWSTAANDMLKTVAQCGLIDIEVYSLFNNVAAVLIHMRDGIINDKLVELMLCRRSDEDYMSRKDHDFRLRRQESARNLSTAQRQQINEEYLRSCQLPQDHDLPPPPLEKCKTVVMLKGPNSPLECTMRSITRVGLSKRVNIDHLSVNALLLDADPQDHHDHLIVAHEIAESRNGQTLTARGTTLMPNVQGFGALMVMLFSPTMQLKCNKEGTSYVSVLGGLGCDPDTNEPYFAEHDVLINLDVNILEDDVILINQIRYYIDSVFFNFKEENNPAVSVNERVSIYTQLRSLINRLLCKDRRYIERNMSNADFEWETNPELPLPNEPFGKRAIFPMHSLTELQEEDTGRLVQLRENCSMLHKWRNFEGTLPHMTCKLCNQLLESVPQLRLHLLTILHRDREKQIDYCNQ
binds: all assays above

B3: Piwi (protein, UniProt Q9VKM1 1-843)
chain: MADDQGRGRRRPLNEDDSSTSRGSGDGPRVKVFRGSSSGDPRADPRIEASRERRALEEAPRREGGPTERKPWGDQYDYLNTRPAELVSKKGTDGVPVMLQTNFFRLKTKPEWRIVHYHVEFEPSIENPRVRMGVLSNHANLLGSGYLFDGLQLFTTRKFEQEITVLSGKSKLDIEYKISIKFVGFISCAEPRFLQVLNLILRRSMKGLNLELVGRNLFDPRAKIEIREFKMELWPGYETSIRQHEKDILLGTEITHKVMRTETIYDIMRRCSHNPARHQDEVRVNVLDLIVLTDYNNRTYRINDVDFGQTPKSTFSCKGRDISFVEYYLTKYNIRIRDHNQPLLISKNRDKALKTNASELVVLIPELCRVTGLNAEMRSNFQLMRAMSSYTRMNPKQRTDRLRAFNHRLQNTPESVKVLRDWNMELDKNVTEVQGRIIGQQNIVFHNGKVPAGENADWQRHFRDQRMLTTPSDGLDRWAVIAPQRNSHELRTLLDSLYRAASGMGLRIRSPQEFIIYDDRTGTYVRAMDDCVRSDPKLILCLVPNDNAERYSSIKKRGYVDRAVPTQVVTLKTTKNRSLMSIATKIAIQLNCKLGYTPWMIELPLSGLMTIGFDIAKSTRDRKRAYGALIASMDLQQNSTYFSTVTECSAFDVLANTLWPMIAKALRQYQHEHRKLPSRIVFYRDGVSSGSLKQLFEFEVKDIIEKLKTEYARVQLSPPQLAYIVVTRSMNTRFFLNGQNPPPGTIVDDVITLPERYDFYLVSQQVRQGTVSPTSYNVLYSSMGLSPEKMQKLTYKMCHLYYNWSGTTRVPAVCQYAKKLATLVGTNLHSIPQNALEKKFYYL
binds: all assays above
